# Test results as given in article PMC10710730.
# Amino acid sequences for entries named in this document (tags omitted). A change or cut given only in a name is not applied to a line headed by its entry. Chains listed by the source or under a name are the forms on record and can include a tag or linker. Residues count along the entry.
# UniProt P29317, residues 24-976: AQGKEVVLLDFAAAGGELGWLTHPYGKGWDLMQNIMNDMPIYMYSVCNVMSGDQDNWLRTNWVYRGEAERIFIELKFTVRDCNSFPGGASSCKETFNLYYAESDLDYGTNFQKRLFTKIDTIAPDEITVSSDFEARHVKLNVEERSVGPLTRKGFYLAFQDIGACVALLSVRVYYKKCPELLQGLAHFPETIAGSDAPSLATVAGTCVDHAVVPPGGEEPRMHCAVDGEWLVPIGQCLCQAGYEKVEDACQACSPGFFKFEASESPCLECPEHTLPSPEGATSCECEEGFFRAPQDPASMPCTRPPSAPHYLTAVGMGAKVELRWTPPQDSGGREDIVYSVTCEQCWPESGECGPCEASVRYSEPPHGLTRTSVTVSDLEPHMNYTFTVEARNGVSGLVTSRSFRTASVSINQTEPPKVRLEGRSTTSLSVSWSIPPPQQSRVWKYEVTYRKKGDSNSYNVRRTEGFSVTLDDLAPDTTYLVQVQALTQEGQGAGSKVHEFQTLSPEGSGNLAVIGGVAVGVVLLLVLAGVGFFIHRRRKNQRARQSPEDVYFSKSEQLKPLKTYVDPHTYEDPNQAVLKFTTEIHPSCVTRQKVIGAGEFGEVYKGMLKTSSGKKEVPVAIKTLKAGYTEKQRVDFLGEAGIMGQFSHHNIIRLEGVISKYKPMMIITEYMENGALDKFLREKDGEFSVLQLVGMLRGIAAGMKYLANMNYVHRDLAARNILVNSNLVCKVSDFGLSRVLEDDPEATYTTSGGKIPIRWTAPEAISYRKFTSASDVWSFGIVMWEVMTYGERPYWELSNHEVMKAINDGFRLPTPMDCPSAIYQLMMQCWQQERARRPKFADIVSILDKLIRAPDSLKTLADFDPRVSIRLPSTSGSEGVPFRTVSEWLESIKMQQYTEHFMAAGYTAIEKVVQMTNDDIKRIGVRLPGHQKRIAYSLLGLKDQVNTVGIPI
# TrkA (tyrosine kinase receptor TrkA, Tropomyosin kinase A), overexpressed in MDA-MB-231 cells (P04629-2, form named): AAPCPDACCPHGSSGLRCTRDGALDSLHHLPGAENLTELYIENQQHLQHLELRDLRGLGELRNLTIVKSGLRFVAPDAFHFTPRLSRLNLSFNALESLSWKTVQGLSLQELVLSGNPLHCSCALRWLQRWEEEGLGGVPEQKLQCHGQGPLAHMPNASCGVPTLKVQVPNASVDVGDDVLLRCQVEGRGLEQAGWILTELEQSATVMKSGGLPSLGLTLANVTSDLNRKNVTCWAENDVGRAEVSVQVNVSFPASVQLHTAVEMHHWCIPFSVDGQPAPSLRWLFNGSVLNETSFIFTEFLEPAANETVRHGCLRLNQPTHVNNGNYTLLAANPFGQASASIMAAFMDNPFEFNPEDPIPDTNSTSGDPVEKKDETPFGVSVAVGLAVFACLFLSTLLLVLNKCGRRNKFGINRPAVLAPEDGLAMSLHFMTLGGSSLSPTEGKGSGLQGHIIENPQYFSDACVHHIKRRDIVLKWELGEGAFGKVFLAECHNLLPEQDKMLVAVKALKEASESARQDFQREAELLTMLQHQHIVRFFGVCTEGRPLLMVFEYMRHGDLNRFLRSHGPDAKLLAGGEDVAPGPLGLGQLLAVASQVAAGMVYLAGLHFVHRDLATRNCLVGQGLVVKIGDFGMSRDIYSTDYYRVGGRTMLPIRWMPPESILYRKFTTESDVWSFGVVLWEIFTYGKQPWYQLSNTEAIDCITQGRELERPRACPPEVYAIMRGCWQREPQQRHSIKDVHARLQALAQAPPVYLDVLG
# TrkA kinase dead (KD) protein (triple mutant Y670F-Y674F-Y675F), overexpressed in MDA-MB-231 cells (P04629-2, form named): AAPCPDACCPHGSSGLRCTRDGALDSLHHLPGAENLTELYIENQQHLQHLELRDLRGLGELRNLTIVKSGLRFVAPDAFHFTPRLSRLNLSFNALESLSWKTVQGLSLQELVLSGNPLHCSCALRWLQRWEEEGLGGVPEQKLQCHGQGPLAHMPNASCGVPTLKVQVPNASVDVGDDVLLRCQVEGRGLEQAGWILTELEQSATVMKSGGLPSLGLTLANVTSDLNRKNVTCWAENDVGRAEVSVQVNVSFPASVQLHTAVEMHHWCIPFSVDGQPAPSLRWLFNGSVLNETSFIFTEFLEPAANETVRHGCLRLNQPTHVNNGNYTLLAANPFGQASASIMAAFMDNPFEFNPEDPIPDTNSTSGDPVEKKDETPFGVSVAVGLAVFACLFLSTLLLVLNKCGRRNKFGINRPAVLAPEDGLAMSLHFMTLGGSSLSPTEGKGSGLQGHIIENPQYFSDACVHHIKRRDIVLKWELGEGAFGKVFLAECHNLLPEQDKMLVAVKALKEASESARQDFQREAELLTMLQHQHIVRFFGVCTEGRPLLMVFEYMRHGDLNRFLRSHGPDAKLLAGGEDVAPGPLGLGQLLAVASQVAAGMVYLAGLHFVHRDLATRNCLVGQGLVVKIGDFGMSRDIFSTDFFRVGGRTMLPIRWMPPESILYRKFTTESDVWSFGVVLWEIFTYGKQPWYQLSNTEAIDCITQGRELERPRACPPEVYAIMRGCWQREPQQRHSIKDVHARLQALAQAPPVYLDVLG
# No constants are given. Whether binding was seen depends on the method and setting. Binding seen in cells or lysates may run through a third protein. Some entries that bind do so weakly or less than the wild type.
# Experiments:
# [1] = biological target: EphA2, endogenous in MDA-MB-231 cells (human (endogenous in MDA-MB-231)) (UniProt P29317); assay: proximity ligation; Duolink in Situ-Red kit rabbit/goat on PFA-fixed cells on collagen I coated slides; TrkA/EphA2 red dots per cell counted; cells treated with proNGF (0.5 nM, 0 to 120 min), in MDA-MB-231 TrkA also with p75NTR siRNA
# [2] = biological target: EphA2, endogenous in BT-549 cells (human (endogenous in BT-549)) (UniProt P29317); assay: as above
Substance,binding [1],binding [2]
"TrkA (tyrosine kinase receptor TrkA, Tropomyosin kinase A), overexpressed in MDA-MB-231 cells (from UniProt P04629-2 33-790)",binds,
"TrkA kinase dead (KD) protein (triple mutant Y670F-Y674F-Y675F), expressed in BT-549 cells (from UniProt P04629-2 33-790) (receptor)",,binds
"TrkA kinase dead (KD) protein (triple mutant Y670F-Y674F-Y675F), overexpressed in MDA-MB-231 cells (from UniProt P04629-2 33-790) (receptor)",binds,
